Some of the results follow.
How the values were obtained:
Assay in all cases: log2 fold change, soluble protein after heating vs DMSO (PISA); higher = thermal stabilisation; K562 cells, 10 uM, 30 min; active = over 0.2 and 3.5 SD of the protein, either way, in both replicates (recomputed)
[1] = compound: CC1=C(C=C(C=C1)NC(=O)C2=CC(=CC=C2)C(C)(C)C#N)NC3=CC4=C(C=C3)N=CN(C4=O)C
Outline: (§1)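 K562 cells at 2×10^6 cells/mL were given 10 μM compound for 30 min. Aliquots then went through 3 min of heating across 48°C-58°C, were pooled, and were extracted in PBS with 0.5% NP-40 at 4°C, and the supernatant after 21,000xg for 90 min was quantified by TMTpro 16plex LC-MS/MS with channel sums equalised. Thermal stability relative to control samples, from duplicates, is given as log2 fold change.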

The chains behind the UniProt entries cited, without tags or fusion partners. Where a name states a change or a piece, a line headed by the entry shows the natural chain unless it says otherwise.
UniProt Q9GZZ1: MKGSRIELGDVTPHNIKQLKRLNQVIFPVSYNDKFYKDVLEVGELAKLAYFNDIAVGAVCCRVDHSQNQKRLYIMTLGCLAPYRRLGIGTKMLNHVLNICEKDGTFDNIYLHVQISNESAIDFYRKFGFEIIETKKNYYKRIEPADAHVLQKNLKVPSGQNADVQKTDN
UniProt P56556, whole entry, looked up: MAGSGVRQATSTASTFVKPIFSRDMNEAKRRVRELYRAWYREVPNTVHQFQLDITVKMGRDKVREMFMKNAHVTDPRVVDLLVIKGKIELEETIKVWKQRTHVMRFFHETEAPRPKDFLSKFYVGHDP
UniProt O75376, whole entry, looked up: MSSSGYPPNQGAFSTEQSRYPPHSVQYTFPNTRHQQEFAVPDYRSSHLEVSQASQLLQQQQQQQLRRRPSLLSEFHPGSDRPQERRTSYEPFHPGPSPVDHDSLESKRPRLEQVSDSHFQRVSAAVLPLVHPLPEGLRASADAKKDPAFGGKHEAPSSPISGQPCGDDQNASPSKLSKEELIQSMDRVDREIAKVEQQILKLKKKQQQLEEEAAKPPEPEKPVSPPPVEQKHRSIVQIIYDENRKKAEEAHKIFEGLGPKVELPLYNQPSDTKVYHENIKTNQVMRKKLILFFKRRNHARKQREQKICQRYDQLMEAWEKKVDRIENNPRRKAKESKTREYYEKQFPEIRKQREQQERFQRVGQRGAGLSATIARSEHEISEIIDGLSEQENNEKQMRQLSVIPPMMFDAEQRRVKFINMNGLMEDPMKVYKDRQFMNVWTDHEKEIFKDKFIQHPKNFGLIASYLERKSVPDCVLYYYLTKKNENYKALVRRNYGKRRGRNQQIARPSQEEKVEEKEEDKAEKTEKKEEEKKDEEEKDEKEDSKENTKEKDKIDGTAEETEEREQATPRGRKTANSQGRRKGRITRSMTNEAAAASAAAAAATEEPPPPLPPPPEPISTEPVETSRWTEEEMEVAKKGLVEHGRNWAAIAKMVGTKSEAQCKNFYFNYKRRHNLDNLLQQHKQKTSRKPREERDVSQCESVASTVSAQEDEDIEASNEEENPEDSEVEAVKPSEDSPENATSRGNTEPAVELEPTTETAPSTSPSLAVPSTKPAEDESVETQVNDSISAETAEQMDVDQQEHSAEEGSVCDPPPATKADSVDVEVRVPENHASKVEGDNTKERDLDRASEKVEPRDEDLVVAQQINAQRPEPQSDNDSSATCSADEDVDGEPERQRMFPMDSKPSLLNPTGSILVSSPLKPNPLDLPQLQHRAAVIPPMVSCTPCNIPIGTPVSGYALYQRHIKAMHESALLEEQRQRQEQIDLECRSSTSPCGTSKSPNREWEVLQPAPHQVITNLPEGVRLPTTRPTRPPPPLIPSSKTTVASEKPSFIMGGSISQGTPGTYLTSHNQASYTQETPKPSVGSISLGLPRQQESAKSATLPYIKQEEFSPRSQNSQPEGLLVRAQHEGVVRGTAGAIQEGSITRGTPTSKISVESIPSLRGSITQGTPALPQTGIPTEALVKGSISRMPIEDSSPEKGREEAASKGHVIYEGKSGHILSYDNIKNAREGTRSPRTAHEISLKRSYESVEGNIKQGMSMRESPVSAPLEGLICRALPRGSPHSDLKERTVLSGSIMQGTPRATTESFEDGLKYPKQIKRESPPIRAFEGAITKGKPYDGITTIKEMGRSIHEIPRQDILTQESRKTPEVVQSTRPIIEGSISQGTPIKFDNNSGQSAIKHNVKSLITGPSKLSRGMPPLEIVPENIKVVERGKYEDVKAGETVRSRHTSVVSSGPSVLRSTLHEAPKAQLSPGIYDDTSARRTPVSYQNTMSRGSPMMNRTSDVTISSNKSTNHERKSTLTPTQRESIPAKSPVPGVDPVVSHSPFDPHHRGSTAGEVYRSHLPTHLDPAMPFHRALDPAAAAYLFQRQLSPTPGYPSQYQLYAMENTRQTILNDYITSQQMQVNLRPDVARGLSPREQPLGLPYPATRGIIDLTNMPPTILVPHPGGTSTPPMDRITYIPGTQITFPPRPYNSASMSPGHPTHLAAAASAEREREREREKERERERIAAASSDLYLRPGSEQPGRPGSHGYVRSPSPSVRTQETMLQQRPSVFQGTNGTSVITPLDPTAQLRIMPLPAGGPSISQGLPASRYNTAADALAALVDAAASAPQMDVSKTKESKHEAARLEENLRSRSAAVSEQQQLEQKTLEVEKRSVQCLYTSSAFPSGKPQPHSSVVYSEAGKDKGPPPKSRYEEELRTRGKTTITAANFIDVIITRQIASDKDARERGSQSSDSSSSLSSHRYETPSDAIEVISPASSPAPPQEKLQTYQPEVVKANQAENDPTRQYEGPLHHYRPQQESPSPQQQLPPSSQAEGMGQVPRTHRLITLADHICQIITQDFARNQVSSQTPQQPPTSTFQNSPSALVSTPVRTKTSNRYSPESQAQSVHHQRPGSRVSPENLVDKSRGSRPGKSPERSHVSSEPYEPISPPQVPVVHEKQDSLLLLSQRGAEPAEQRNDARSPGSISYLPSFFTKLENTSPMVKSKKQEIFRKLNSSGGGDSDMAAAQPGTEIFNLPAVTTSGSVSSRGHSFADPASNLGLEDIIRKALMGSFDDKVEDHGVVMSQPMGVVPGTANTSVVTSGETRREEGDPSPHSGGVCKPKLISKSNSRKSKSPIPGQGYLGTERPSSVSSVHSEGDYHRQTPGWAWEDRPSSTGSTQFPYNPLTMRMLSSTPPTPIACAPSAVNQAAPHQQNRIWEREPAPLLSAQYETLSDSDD
UniProt P17568, whole entry, looked up: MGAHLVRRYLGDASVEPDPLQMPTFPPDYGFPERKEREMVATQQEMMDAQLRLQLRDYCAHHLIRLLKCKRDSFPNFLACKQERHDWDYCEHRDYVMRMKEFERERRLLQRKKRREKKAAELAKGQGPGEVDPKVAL
UniProt Q9UHB4: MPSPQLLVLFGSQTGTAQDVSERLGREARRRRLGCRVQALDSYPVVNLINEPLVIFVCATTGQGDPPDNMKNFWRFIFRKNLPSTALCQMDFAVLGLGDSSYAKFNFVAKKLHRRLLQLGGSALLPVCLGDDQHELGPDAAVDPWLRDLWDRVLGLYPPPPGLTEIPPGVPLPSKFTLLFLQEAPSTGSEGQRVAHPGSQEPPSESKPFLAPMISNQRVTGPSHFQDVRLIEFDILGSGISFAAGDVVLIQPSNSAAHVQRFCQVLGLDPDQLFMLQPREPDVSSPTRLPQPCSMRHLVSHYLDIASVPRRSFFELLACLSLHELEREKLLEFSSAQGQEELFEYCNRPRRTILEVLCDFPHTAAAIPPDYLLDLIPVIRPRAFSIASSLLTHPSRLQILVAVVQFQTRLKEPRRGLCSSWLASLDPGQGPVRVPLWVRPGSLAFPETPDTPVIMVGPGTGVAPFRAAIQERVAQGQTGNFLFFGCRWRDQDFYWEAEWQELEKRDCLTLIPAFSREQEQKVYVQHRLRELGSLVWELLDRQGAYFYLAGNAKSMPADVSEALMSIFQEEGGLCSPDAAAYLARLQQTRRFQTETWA
UniProt O00483, whole entry, looked up: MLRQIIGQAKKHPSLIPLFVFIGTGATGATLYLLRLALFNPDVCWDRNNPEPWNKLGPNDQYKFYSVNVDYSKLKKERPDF
UniProt Q5TEU4: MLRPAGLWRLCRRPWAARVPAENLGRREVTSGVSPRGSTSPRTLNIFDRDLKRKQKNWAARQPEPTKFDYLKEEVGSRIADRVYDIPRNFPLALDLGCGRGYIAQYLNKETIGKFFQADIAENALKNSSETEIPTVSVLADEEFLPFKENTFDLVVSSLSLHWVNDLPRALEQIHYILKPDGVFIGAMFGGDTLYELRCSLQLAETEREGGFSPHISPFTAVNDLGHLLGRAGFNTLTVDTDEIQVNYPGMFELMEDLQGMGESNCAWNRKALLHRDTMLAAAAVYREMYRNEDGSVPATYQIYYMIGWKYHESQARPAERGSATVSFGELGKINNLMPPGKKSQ

[2] = compound: CC1=C(C=C(C=C1)NC(=O)C2=CC(=CC=C2)N(C)C)NC(=O)C3=CC=C(C=C3)O
Outline: as §1

[3] = compound: CC1=CC=C(C=C1)SC2=C3C=C(SC3=CN=C2)C(=O)N
Outline: as §1

[4] = compound: CC1=NC(=CC=C1)C2=C(N=C(N2)C(C)(C)C)C3=CC4=NC=CN=C4C=C3
Outline: as §1

Nexturastat A = compound: CCCCN(Cc1ccc(C(=O)NO)cc1)C(=O)Nc1ccccc1 [Nexturastat A]
Outline: as §1

vemurafenib = compound: CCCS(=O)(=O)Nc1ccc(F)c(C(=O)c2c[nH]c3ncc(-c4ccc(Cl)cc4)cc23)c1F [vemurafenib]
Outline: as §1

[5] = compound: CCCS(=O)(=O)Nc1ccc(F)c(C(=O)c2c[nH]c3ncc(Cl)cc23)c1F
Outline: as §1

[6] = compound: CCCc1cc(C)[nH]c(=O)c1CNC(=O)c1cc(-c2ccnc(N3CCN(C)CC3)c2)cc2c1cnn2C(C)C
Outline: as §1

givinostat = compound: CCN(CC)Cc1ccc2cc(COC(=O)Nc3ccc(C(=O)NO)cc3)ccc2c1 [givinostat]
Outline: as §1

barasertib = compound: CCN(CCCOc1ccc2c(Nc3cc(CC(=O)Nc4cccc(F)c4)[nH]n3)ncnc2c1)CCOP(=O)(O)O [barasertib]
Outline: as §1

[7] = compound: CC[C@@H]1C(=O)N(C)c2cnc(Nc3ccc(C(=O)NC4CCN(C)CC4)cc3OC)nc2N1C1CCCC1
Outline: as §1

volasertib = compound: CC[C@@H]1C(=O)N(C)c2cnc(Nc3ccc(C(=O)N[C@H]4CC[C@H](N5CCN(CC6CC6)CC5)CC4)cc3OC)nc2N1C(C)C [volasertib]
Outline: as §1

[8] = compound: CC[C@H](C)N1C=C(C2=C(C=C(C=C21)C3=CN=C(C=C3)N4CCNCC4)C(=O)NCC5=C(C=C(NC5=O)C)C)C
Outline: as §1

epoxomicin = compound: CC[C@H](C)[C@@H](C(=O)N[C@@H]([C@@H](C)O)C(=O)N[C@@H](CC(C)C)C(=O)[C@]1(CO1)C)NC(=O)[C@H]([C@@H](C)CC)N(C)C(=O)C [epoxomicin]
Outline: as §1

[9] = compound: CCn1c(C(=O)N(C2CC2)C2CC2)cc2c3c(ncn3C)c(Nc3cc(C)n(C)n3)nc21
Outline: as §1

[10] = compound: CCn1cc(-c2ccnc3[nH]c(-c4cccc(CN(C)C)c4)cc23)c(-c2ccc(NC(=O)N(C)C)cc2)n1
Outline: as §1

[11] = compound: CN(C)CC(=O)Nc1ccc2[nH]c(=O)c3ccccc3c2c1
Outline: as §1

rosiglitazone = compound: CN(CCOC1=CC=C(C=C1)C[C@H]2C(=O)NC(=O)S2)C3=CC=CC=N3 (racemic) [rosiglitazone]
Outline: as §1

[12] = compound: CN1C2=C(C3=C1C(=O)N(N=C3)CC4=CC(=CC=C4)N)SC(=C2)S(=O)C
Outline: as §1

[13] = compound: CN1CCC(CNc2ccc3ncc(-c4cccc(OC(F)(F)F)c4)n3n2)CC1
Outline: as §1

Target | log2 fold change [1] | log2 fold change [2] | log2 fold change [3] | log2 fold change [4] | log2 fold change (Nexturastat A) | log2 fold change (vemurafenib) | log2 fold change [5] | log2 fold change [6] | log2 fold change (givinostat) | log2 fold change (barasertib) | log2 fold change [7] | log2 fold change (volasertib) | log2 fold change [8] | log2 fold change (epoxomicin) | log2 fold change [9] | log2 fold change [10] | log2 fold change [11] | log2 fold change (rosiglitazone) | log2 fold change [12] | log2 fold change [13]
NAA50 (UniProt Q9GZZ1) | inactive: 0.071 | inactive: 0.001 | inactive: 0.029 | inactive: 0.091 | inactive: -0.037 | inactive: 0.03 | inactive: 0.08 | inactive: -0.028 | inactive: 0.04 | inactive: 0.005 | inactive: -0.04 | inactive: -0.013 | inactive: 0.074 | inactive: 0.025 | inactive: -0.011 | inactive: -0.063 | inactive: 0.016 | inactive: 0.023 | inactive: -0.093 | inactive: -0.007
NDUFA6 (UniProt P56556) | inactive: 0.029 | inactive: -0.082 | inactive: 0.1 | inactive: 0.125 | inactive: -0.067 | inactive: 0.04 | inactive: 0.198 | inactive: -0.064 | inactive: 0.047 | inactive: 0.035 | inactive: -0.069 | inactive: -0.252 | inactive: 0.098 | inactive: 0.115 |  | inactive: -0.089 | inactive: 0.081 |  | inactive: -0.022 | inactive: -0.072
NCOR1 (UniProt O75376) | inactive: -0.035 | inactive: -0.075 | inactive: -0.195 | inactive: 0.101 | inactive: -0.079 | inactive: 0.01 | inactive: -0.149 | inactive: -0.079 | inactive: 0.014 | inactive: -0.094 | inactive: -0.034 | inactive: -0.021 | inactive: 0.142 | inactive: 0.07 |  | inactive: 0.046 | inactive: 0.048 |  | inactive: 0.033 | inactive: -0.045
NDUFB7 (UniProt P17568) | inactive: 0.037 | inactive: -0.006 | inactive: 0.063 | inactive: 0.027 | inactive: 0.023 | inactive: 0.018 | inactive: -0.014 | inactive: -0.124 | active: -0.367 | inactive: -0.012 | inactive: -0.053 | inactive: -0.004 | inactive: -0.072 | inactive: -0.066 |  | inactive: -0.099 | inactive: -0.036 |  | inactive: -0.058 | inactive: 0.094
NDOR1 isoform 2 (UniProt Q9UHB4) | inactive: -0.032 | inactive: 0.037 | inactive: -0.018 | inactive: 0.017 | inactive: -0.077 | inactive: -0.023 | inactive: 0.094 | inactive: -0.059 | inactive: 0.032 | inactive: 0.021 | inactive: -0.03 | inactive: -0.055 | inactive: 0.019 | inactive: 0.12 | inactive: -0.063 | inactive: -0.103 | inactive: -0.032 | inactive: 0.014 | inactive: -0.005 | inactive: 0.046
NDUFA4 (UniProt O00483) | inactive: 0.046 | inactive: -0.069 | inactive: -0.003 | inactive: 0.049 | inactive: -0.033 | inactive: 0.002 | inactive: 0.018 | inactive: -0.023 | inactive: -0.099 | inactive: 0.044 | inactive: 0.033 | inactive: 0.042 | inactive: -0.019 | active: 0.369 |  | inactive: 0.019 | inactive: -0.039 |  | inactive: 0.018 | inactive: 0.101
NDUFAF5 (UniProt Q5TEU4) | inactive: -0.046 | inactive: 0.054 | inactive: -0.038 | inactive: 0.047 | inactive: -0.139 | inactive: 0.026 | inactive: -0.046 | inactive: 0.005 | inactive: -0.032 | inactive: -0.163 | inactive: 0.082 | inactive: 0.049 | inactive: -0.068 | inactive: 0.056 | inactive: -0.002 | inactive: -0.007 | inactive: -0.038 | inactive: -0.171 | inactive: -0.091 | inactive: -0.069
NAA15, A0A0B4J1W3 | inactive: -0.167 | inactive: -0.021 | inactive: 0.026 | inactive: 0.014 | inactive: -0.128 | inactive: -0.068 | inactive: 0 | inactive: -0.086 | inactive: -0.012 | inactive: 0.029 | inactive: 0.096 | inactive: 0.044 | inactive: -0.048 | inactive: -0.039 | inactive: 0.014 | inactive: -0.099 | inactive: -0.02 | inactive: 0.014 | inactive: -0.073 | inactive: -0.015

Reference: the supplement of paper PMC10849652
